From publication PMC3738497
These are yes or no findings as the source states them, for the method shown. Binding seen in cells or lysates may run through a third protein. For some assays here: A result given as binding can be weak or reduced; the word gives no strength.

Legend:
[1] = molecular target: HA-tagged m41 expressed from MCMV-HAm41 (murine cytomegalovirus (MCMV)); test: co-IP; NIH-3T3 cells infected with MCMV-M50HA or MCMV-HAm41; after 24 h M50 and m41 precipitated with an anti-HA antibody; endogenous IRE1 detected with an IRE1-specific antibody
[2] = molecular target: HA-tagged M50 expressed from MCMV-M50HA (murine cytomegalovirus (MCMV)); test: as above

B1: endogenous IRE1 of NIH-3T3 cells (protein, UniProt Q9Z2E3 34-911)
chain: VRPESLLFVSTLDGSLHALNKQTGDLKWTVKDDPIIQGPMYVTEMAFLSDPADGSLYVLGTQKQQGLMKLPFTIPELVHASPCRSSDGVFYTGRKQDAWFVVDPESGETQMTLTTEGLSTPQLFIGRTQYTVSMHDLRTPALRWNTTYRRYSAPLLNGSPGKYMSHLTSCGMGLLLTVDPGSGIVLWTQDLGVPVTGIYTWHQDGLHQLPHLTLARDTLHFLVLRWGHIRLPASSYQDTATQFSSLDTQLLMTLYVGKEEAGFYVSKALVHAGVALVPRGLTLAPMDGPTTDEVTLQVSGEREGSPSTAVRYPSGSVALPSQWLLIGYHEPPPVLHTTMLRVHPIPGKVSAETRASEDLHAPPVFFELLNLRREDPELHPEEKASDSYPGLGSQDLLAATFTAILLGAWVLYLMRQQQQSPSAPAGPPDLSQDAQGQLSRDILQDQRRFQSPSEPAQPPHDPEAGQPTVVGKISFNPKDVLGRGAGGTFVFRGQFEGRAVAVKRLLRECFGLVRREVQLLQESDRHPNVLRYFCTEHGPQFHYIALELCQASLQEYVESPDLDRWGLEPTTVLQQMMSGLAHLHSLHIVHRDLKPANILMAGPDSQGQGRVVISDFGLCKKLPVGRCSFSLHSGIPGTEGWMAPELLQLPPDSPTSAVDIFSAGCVFYYVLSGGSHPFGESLYRQANILSGDPCLAQLQEETHDKVVALDLVRAMLSLLPQDRPSAGWVLAHPLFWSRAKELQFFQDVSDWLEKEPDQGPLVSALEAGSYKVVREDWHKHISAPLQADLKRFRSYKGTSVRDLLRAMRNKKHHYRELPAEVRQTLGQLPAGFIQYFTQRFPRLLLHTHRAMRTCASESLFLPYYPPALEARRPDATKS
binding [1]: no binding | binding [2]: binds
